These results are taken from publication PMC5261026.

The chains behind the UniProt entries cited, without tags or fusion partners. Where a name states a change or a piece, a line headed by the entry shows the natural chain unless it says otherwise.
UniProt Q99814: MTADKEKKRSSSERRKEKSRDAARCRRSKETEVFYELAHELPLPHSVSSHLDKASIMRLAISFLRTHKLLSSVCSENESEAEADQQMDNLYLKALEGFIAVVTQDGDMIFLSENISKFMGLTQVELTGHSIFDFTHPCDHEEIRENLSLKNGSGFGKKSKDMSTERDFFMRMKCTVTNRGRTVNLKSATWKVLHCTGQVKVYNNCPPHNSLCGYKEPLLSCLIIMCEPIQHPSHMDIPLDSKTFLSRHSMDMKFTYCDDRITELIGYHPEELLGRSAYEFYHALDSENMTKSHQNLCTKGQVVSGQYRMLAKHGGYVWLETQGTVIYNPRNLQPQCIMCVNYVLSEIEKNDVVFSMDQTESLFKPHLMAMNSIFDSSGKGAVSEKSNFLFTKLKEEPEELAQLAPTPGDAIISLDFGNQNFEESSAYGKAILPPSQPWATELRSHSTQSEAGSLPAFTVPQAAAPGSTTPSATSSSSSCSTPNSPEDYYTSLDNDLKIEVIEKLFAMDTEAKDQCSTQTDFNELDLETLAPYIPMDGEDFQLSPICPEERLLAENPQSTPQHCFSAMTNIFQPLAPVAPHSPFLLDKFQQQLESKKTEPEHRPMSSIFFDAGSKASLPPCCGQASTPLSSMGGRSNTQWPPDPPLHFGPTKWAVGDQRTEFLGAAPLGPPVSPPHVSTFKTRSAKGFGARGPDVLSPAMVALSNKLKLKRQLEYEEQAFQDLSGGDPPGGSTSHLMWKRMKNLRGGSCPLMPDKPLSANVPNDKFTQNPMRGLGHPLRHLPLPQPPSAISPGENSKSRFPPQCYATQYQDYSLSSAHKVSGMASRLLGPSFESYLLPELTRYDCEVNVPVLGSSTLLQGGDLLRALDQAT
UniProt P10451: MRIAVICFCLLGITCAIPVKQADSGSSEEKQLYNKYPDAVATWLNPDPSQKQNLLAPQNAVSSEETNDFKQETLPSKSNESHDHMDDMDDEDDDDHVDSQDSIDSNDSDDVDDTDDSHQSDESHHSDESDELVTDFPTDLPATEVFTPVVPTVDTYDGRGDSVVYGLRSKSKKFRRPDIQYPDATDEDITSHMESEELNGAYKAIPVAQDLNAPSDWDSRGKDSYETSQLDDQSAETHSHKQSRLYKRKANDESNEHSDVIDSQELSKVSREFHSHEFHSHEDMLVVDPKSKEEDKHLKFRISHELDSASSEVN

These are yes or no findings as the source states them, for the method shown. Binding seen in cells or lysates may run through a third protein. Some results given as binding are weak or reduced against the parent protein; the word gives no strength.

The target in one test is HA-HIF2α (UniProt Q99814). Put plainly: co-IP; Co-IP analysis of V5-iOPN and HA-HIF2α proteins; cells and direction not told in the main text.
Test [1] concerns the target endogenous HIF2α (human (endogenous in 293T, Hep3B, HCCLM3)) (UniProt Q99814). Put plainly: co-IP; lysates from 293T, Hep3B and HCCLM3 cells immunoprecipitated with denoted antibodies; HIF2α and OPN levels then assessed; endogenous proteins.

In the case of “V5-iOPN (intracellular form of human OPN) (from UniProt P10451 16-314) (domain or fragment)”, the binding result with HA-HIF2α is reported as “binds”. Take “endogenous intracellular/nuclear osteopontin (iOPN) (from UniProt P10451 17-314)”: the binding result in test [1] is listed as “binds”.
